Changes are numbered by the printed parent chain. No constants are given. Whether binding was seen depends on the method and setting. Some results given as binding are weak or reduced against the parent protein; the word gives no strength. Values belong to the binder of their own block, whether it stands above or below them.
Key:
[1] = biological target: purified recombinant IFNAR-1 extracellular fragment (human) (UniProt P17181); experiment: Biacore, antibody captured on anti-human IgG Fc, soluble IFNAR-1 25-400 nM
[2] = biological target: IFNAR-1 on peripheral blood cells from rhesus monkeys (rhesus monkey) (UniProt H9FTY2); experiment: flow cytometry on peripheral blood cells from rhesus monkeys

Amino acid sequences for entries named in this document (tags omitted). A change or cut given only in a name is not applied to a line headed by its entry. Chains listed by the source or under a name are the forms on record and can include a tag or linker. Residues count along the entry.
UniProt P17181, residues 28-436: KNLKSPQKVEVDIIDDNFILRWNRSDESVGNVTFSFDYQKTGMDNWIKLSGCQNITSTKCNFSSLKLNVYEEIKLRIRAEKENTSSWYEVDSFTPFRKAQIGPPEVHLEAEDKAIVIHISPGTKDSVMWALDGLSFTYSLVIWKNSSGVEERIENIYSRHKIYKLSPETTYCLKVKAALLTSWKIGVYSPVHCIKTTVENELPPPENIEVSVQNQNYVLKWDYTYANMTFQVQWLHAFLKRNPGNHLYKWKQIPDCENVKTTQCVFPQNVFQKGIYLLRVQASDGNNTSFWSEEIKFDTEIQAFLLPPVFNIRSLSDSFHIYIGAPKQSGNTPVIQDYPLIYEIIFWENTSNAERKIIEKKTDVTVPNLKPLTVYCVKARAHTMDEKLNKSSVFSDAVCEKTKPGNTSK
IFNAR-1 on peripheral blood cells from rhesus monkeys (H9FTY2, form named): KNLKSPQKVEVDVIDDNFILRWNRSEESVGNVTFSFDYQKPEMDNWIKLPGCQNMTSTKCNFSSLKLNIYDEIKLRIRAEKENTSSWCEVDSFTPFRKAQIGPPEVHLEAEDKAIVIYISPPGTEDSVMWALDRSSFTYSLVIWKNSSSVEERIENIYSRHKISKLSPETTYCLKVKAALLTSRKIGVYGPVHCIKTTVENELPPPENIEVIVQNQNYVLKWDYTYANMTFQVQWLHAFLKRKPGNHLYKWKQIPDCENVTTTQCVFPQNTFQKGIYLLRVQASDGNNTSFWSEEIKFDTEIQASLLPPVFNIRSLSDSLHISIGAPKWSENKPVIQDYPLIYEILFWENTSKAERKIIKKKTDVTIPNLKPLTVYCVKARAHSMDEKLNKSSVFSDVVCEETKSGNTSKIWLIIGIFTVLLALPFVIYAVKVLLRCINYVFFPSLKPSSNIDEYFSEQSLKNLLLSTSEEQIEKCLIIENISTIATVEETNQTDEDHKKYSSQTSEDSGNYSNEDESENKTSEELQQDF

- binding [1]: binds
B1: DI M3-B heavy chain with K1-C light chain (Example 3) (antibody, V domains shown)
VH: EVQLLESGGGLVQPGGSLRLSCAASGFTMSTSGMGIGWIRQTPGKGLEWVAHIWWDDDKYYNPSLKARFTISRDTSKNTLYLQMNSLRAEDTAVYYCARNYYPYDAWFDYWGQGTLVTVS
VL: DIQMTQSPSSLSASVGDRVTITCSASTSINSNHLHWYQQKPGKAPKLLIYRTSILASGVPSRFSGSGSGTSFTLTISSLQPEDFATYYCQQGSNIPFTFGQGTKVEIKR
notes: also called DIM3-B K1-C; DI M3-B K1-C

- binding [2]: binds
B2: H3K1 (IgG4) (antibody, V domains shown)
VH: B1 VH with L5V, A24F, M29L, I39V, T42A, A67S, L80V
VL: B1 VL with T27S
notes: also called H3K1 standard; humanized anti-IFNAR-1 mAb H3K1

— US20050208041A1 (Bristol-Myers Squibb, published 2005)
